Measurements reported in PubChem BioAssay AID1259424 (University of Nebraska Medical Center, 2018)
Screen: 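Rank knockdowns across the genome by resemblance to the KSR1 depletion profile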 (primary screen). Cells: human HCT116 colon cancer cells. Reagent: siRNA pool against human genes, 50 nM. Read-out: 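Log2 levels of six mRNAs (branched-DNA multiplex), adjusted by two reference genes and the non-targeting median, then scored against the average KSR1 knockdown pattern as Pearson r and euclidean distance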. Direction: mean correlation with KSR1 profile: higher = expression change more like KSR1 knockdown.
The whole screen tested about 14,000 reagents; shown is a random part of them. 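Higher correlation or smaller distance means closer resemblance to KSR1 loss; control wells, including KSR1 knockdowns, recur on many plates.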 Further read-outs or replicates are left out here. Not stated in the record: the time to read-out.

Gene	mean correlation with KSR1 profile
IL13 (interleukin 13)	0.0746
PLIN2 (perilipin 2)	-0.364
ABHD10 (abhydrolase domain containing 10, depalmitoylase)	-0.206
DHCR7 (7-dehydrocholesterol reductase)	0.479
PLA2G10 (phospholipase A2 group X)	-0.121
ROM1 (retinal outer segment membrane protein 1)	0.66
MEF2D (myocyte enhancer factor 2D)	-0.42
SETDB2 (SET domain bifurcated histone lysine methyltransferase 2)	0.384
GUCA2B (guanylate cyclase activator 2B)	0.791
STAB1 (stabilin 1)	-0.443
MGAT3	0.114
LZTS3 (leucine zipper tumor suppressor family member 3)	0.263
CCKBR (cholecystokinin B receptor)	0.184
LSM14A (LSM14A mRNA processing body assembly factor)	-0.251
ESYT2 (extended synaptotagmin 2)	-0.933
BTN3A3 (butyrophilin subfamily 3 member A3)	-0.133
FAM131B (family with sequence similarity 131 member B)	-0.00531
PTTG3P (pituitary tumor-transforming 3, pseudogene)	-0.467
PRKACB (protein kinase cAMP-activated catalytic subunit beta)	-0.123
SLC5A1	-0.538
MFGE8 (milk fat globule EGF and factor V/VIII domain containing)	0.39
FGF7 (fibroblast growth factor 7)	0.078
FN3K (fructosamine 3 kinase)	-0.0588
EIF3G (eukaryotic translation initiation factor 3 subunit G)	-0.45
KIR3DL2	-0.0389
WTAP (WT1 associated protein)	-0.431
IRGC (immunity related GTPase cinema)	-0.799
SYBU (syntabulin)	0.454
CIAO2B (cytosolic iron-sulfur assembly component 2B)	-0.206
ERAL1 (Era like 12S mitochondrial rRNA chaperone 1)	0.487
DCAF12 (DDB1 and CUL4 associated factor 12)	-0.229
MT-ND5 (mitochondrially encoded NADH dehydrogenase 5)	-0.0706
RSRC2 (arginine and serine rich coiled-coil 2)	-0.137
HSD3B2	0.128

Copied from the list.
STAB1 (stabilin 1), mean correlation with KSR1 profile: -0.443
Entry of BTN3A3 (butyrophilin subfamily 3 member A3) in “mean correlation with KSR1 profile”: -0.133
